In patent US20140031261:
For at least one entry, the source does not settle the construct or the ends of the probe. For some of these results: The comparison behind a weaker result is the experiment's own reference, which may not be listed here.

The chains behind the UniProt entries cited, without tags or fusion partners. Where a name states a change or a piece, a line headed by the entry shows the natural chain unless it says otherwise.
UniProt Q46731: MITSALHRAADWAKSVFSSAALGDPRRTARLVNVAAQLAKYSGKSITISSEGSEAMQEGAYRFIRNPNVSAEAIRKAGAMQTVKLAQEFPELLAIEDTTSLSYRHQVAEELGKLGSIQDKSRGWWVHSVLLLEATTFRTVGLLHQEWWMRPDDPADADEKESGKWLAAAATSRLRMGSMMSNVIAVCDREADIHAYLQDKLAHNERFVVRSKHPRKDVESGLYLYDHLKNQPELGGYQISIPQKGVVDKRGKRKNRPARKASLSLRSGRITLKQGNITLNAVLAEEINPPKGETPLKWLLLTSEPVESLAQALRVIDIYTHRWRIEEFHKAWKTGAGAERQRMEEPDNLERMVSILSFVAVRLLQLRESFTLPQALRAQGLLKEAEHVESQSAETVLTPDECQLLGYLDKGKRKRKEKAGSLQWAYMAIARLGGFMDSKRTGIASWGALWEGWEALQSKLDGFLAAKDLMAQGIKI

These sequences were tested against hyperactive Tn5 transposase (UniProt Q46731) (assay: activity assay). Conditions: in vitro transposition, dilution in parallel with ME; Tm 58 C vs 44 C; purified recombinant protein; protein details: 10 U/ul stock.

Sequence | activity on this sequence
CGTTGTGTGGACGAGACAG (double strand) [11G:C(G1)] | active

The sequences below were run against hyperactive Tn5 transposase (UniProt Q46731) (assay: enzyme reaction in vitro). Conditions: 5'-phosphorylated end sequence; tagmentation; Mg2+, 37 C; purified recombinant protein; protein details: 10 U/ul stock.

Sequence | activity on this sequence
AGATGTGTATAAGAGACAG / CTGTCTCTTATACAC [ME / 15-base non-transferred] | active
AGATGTGTATAAGAGACAG / CTGTCTCTTATACACAT [ME / 17-base non-transferred] | active
AGATGTGTATAAGAGACAG (double strand) [ME transferred strand / 19-base non-transferred strand] | active
AGATGTGTATAAGAGACAG / CTGTCTCTTAT [ME / 11-base non-transferred] | less active
AGATGTGTATAAGAGACAG / CTGTCTCTTATACACA [ME / 16-base non-transferred] | active
AGATGTGTATAAGAGACAG / CTGTCTCTTATA [ME / 12-base non-transferred] | active
AGATGTGTATAAGAGACAG / CTGTCTCTTATACA [ME / 14-base non-transferred] | active
AGATGTGTATAAGAGACAG / CTGTCTCTTATAC [ME / 13-base non-transferred] | active
AGATGTGTATAAGAGACAG / CTGTCTCTT [ME / 9-base non-transferred] | less active
AGATGTGTATAAGAGACAG / CTGTCTCTTATACACATC [ME / 18-base non-transferred] | active
AGATGTGTATAAGAGACAG / CTGTCTCT [ME / 8-base non-transferred] | less active
AGATGTGTATAAGAGACAG / CTGTCTCTTA [ME / 10-base non-transferred] | less active
